# Among all 110,000 compounds or so, about 610 (0.55%) were called active. The source calls these results inconclusive, neither active nor inactive. The call rests on the fitted dose curve; in most records, active means well fitted inhibition curve with a large enough effect; inconclusive means small, poorly fitted or top-dose-only effect; inactive means no such curve, though single readings can be large or run the other way.
# The chains behind the UniProt entries cited, without tags or fusion partners.
# UniProt O15296, whole entry: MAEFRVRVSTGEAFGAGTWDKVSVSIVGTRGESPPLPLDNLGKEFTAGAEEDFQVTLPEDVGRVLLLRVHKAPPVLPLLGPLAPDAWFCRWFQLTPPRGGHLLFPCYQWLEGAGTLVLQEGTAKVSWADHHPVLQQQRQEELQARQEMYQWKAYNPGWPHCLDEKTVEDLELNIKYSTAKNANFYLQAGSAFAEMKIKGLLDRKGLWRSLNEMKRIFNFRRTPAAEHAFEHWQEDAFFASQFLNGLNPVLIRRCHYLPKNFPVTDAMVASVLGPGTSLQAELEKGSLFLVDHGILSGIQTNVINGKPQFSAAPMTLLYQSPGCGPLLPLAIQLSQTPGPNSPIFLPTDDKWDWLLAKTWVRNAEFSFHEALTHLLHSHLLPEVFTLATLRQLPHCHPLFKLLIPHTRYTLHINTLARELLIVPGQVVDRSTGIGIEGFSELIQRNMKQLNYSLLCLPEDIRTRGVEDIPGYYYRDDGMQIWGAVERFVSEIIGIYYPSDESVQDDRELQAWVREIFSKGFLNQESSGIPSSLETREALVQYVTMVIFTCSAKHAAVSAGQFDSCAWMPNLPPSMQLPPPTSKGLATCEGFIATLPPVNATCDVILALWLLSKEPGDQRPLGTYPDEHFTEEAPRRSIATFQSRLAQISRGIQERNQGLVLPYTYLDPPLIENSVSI
# Biological target: Polyunsaturated fatty acid lipoxygenase ALOX15B (Homo sapiens) (UniProt O15296)
# Experiment: qHTS Assay for Inhibitors of 15-hLO-2 (15-human lipoxygenase 2); further: nearly all actives have a fitted effect of over 60% in size
# Conditions: purified 15hLO-2, xylenol orange hydroperoxide absorbance
# From the text: Assay Overview: NIH Molecular Libraries Screening Centers Network [MLSCN] NIH Chemical Genomics Center [NCGC] MLSCN Grant: MH081283-01A1 PI Name: Holman, T.R., University of California, Santa Cruz Human lipoxygenase 15hLO-2 is a member of the closely related lipoxygenase family of enzymes which catalyze the site-specific oxidation of arachidonic acid to various hormone precursor molecules and as such is a candidate for drug development in a variety of disease areas, such as cancer and inflammation. Inhibition of 15hLO-2 activity was screened by utilizing arachidonic acid as a substrate. The extent of hydroperoxide product formation was measured by a secondary chromogenic reaction in which xylenol orange (XO, Sigma-Aldrich, cat. number 39,818-7) reacts with the ferric ions produced from the reaction between the hydroperoxide and ferrous ions. The Fe(III)-XO complex is characterized with red-shifted absorbance at 560 nm. A purified preparation of human 15hLO-2 was supplied by Professor Ted Holman, University of California, Santa Cruz.
# Assay Protocol: Buffer: 25 mM Hepes pH 7.5, 0.01% Triton X-100. Reagents/Controls: Buffer in columns 3 and 4 as negative control (no enzyme). […] The absorbance at 405 and 573 nm were measured using ViewLux (Perkin-Elmer) High-throughput CCD imager and absorbance protocol settings. The 573-to-405 absorbance ratio was used to compute reaction progress.
# Potency means the concentration at half of the fitted maximal effect.
row,Compound,Potency
1,CCc1ccc(OP(C)(=O)O)cc1,inconclusive: 200 nM

# — PubChem BioAssay AID881 (National Center for Advancing Translational Sciences (NCATS), 2007)
